The structures given here were assigned with low confidence; some may be wrong.
How the values were obtained:
[1] = test system: MDA-MB-231 (MDA 231, human breast adenocarcinoma); assay: Cancer cell viability, CCK-8 assay, MDA-MB-231; details: read-out: IC50 (uM, MDA 231), MDA 231, 48 hours incubation
[2] = test system: HCT116 (human colon cancer); assay: Cancer cell viability, CCK-8 assay, HCT116; details: read-out: IC50 (uM, HCT116), HCT116, 48 hours incubation
[3] = biological target: recombinant human caseinolytic peptidase hClpP (Homo sapiens, UniProt Q16740); assay: hClpP peptide hydrolysis assay (coumarin release from Ac-WLA-AMC); details: purified hClpP

Chains of the proteins cited; added tags and fusions are not shown. Residues count along the entry.
UniProt Q16740, 57-277 limits assumed: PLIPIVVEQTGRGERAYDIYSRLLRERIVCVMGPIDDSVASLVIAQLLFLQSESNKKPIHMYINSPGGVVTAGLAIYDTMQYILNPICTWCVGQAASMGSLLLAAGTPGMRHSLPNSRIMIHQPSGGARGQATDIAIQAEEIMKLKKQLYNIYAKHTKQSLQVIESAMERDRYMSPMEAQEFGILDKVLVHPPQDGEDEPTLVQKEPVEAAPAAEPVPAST

| IC50 [1] [µM] | IC50 [2] [µM] | Compound | Dose-dependency of hClpP activation [3] |
| --- | --- | --- | --- |
| 0.05 | 0.03 | O=C1C2=C(CCN(Cc3ccccc3)C2)N2CCN=C2N1Cc1ccc(C(F)(F)F)cc1 | – |
| – | – | N#Cc1cccc(CN2CC3=C(C2)N2CCN=C2N(Cc2ccc(Cl)cc2)C3=O)c1 | Dose-dependent increases in hClpP activity |
